Sequences of proteins named here, by UniProt entry; tags and fusion partners are left off. A change or cut given only in a name is not applied to a line headed by its entry.
UniProt P51450: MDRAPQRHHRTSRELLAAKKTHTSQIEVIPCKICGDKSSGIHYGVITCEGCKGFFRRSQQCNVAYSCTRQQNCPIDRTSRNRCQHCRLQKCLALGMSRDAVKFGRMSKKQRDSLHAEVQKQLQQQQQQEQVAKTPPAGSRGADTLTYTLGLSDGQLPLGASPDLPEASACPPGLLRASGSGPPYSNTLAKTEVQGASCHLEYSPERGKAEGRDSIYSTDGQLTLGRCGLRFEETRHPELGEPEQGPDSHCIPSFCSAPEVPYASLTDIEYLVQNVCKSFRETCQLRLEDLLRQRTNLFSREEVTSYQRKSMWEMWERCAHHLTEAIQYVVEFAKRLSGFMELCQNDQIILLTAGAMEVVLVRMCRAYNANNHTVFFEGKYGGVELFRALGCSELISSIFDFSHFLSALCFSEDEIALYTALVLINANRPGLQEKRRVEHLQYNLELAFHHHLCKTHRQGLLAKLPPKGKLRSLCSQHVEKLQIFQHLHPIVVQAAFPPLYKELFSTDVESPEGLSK

The whole screen tested about 310,000 compounds, of which about 17,000 (5.5%) were called active. Inconclusive means that the source gave no clear call. Such entries were picked first, then a sample of the others. The call rests on the fitted dose curve; in most records, active means well fitted inhibition curve with a large enough effect; inconclusive means small, poorly fitted or top-dose-only effect, or effect the other way; inactive means no such curve, though single readings can be large or run the other way. Potencies beside an inconclusive call are fits to weak or partial responses and may not hold up.
Each molecule was assayed against Nuclear receptor ROR-gamma (Mus musculus) (UniProt P51450) (assay: qHTS for inhibitors of ROR gamma transcriptional activity). Details: Drosophila S2 Gal4-RORgamma UAS-luciferase reporter, 20 h; activity change, negative = inhibition: at 53.6 µM (top of the series).
In short: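 Read-out: Photinus luciferase luminescence; inhibitors lower reporter signal. Insect Schneider cells with Gal4-ROR gamma fusion under metallothionein promoter, UAS reporter; 700 uM final copper sulfate induction, 20 hr, ambient temperature.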
With `NCCc1c(-c2ccccc2)n(-c2ccccc2)c2ccccc12` the Potency was inconclusive: 25.1 µM [inhibitor, single point]. `CCC(Sc1ncnc2sc(C)c(C)c12)C(=O)OC` (stereo not given) was tested, and the Potency was inconclusive: 22.4 µM [inhibitor, single point]. `COc1ccc(C(C(=O)NC2CCCC2)N(C(=O)c2ccoc2C)c2ccc(C)cc2)cc1` (stereo not given) was tested, and the Potency was inconclusive: 25.1 µM [activator, single point]. With `Cc1ccc(-c2cc(C(=O)N3CCN(C(=O)c4ccco4)CC3)[nH]n2)c(C)c1` the Potency was inconclusive: 31.6 µM [activator, single point]. For `CCn1c(-c2ccc(C)cc2)n[nH]c1=S`, the Potency was active: 8.91 µM. With `O=S(=O)(c1ccccc1)N1CCN(Cc2ccc(Cl)cc2)CC1` the Potency was inconclusive: 7.94 µM [activator, partial curve]. For `Cc1ccccc1C(=O)N1CCN(c2ccc(NC(=S)NC(=O)c3cccs3)cc2)CC1`, the Potency was active: 2.82 µM. For `Clc1ccccc1CSc1nnc(-c2ccccn2)n1Cc1ccco1`, the Potency was inconclusive: 15.8 µM [inhibitor, single point]. `O=C(Nc1cc(S(=O)(=O)N2CCOCC2)ccc1N1CCOCC1)c1cnccn1` was tested, and the Potency was inconclusive: 3.16 µM [activator, single point]. `O=C1c2ccccc2C(=O)N1CN(C(=O)c1ccccc1)c1ccc(O)cc1` was tested, and the Potency was inconclusive: 28.2 µM [activator, single point]. For `Cc1ccc(C(=O)NCCc2nnc(SCC(=O)Nc3cccc(C(=O)O)c3)n2C)cc1`, the Potency was inconclusive: 12.6 µM [inhibitor, single point]. `COc1ncc2nc(CCc3ccccc3)c(=O)n(CCC#N)c2n1` was tested, and the “activity change, negative = inhibition” value was inactive: -7.31%. In the case of `Cc1ccc(N2CCN(Cc3ccccc3)CC2=O)c(C)c1`, the “activity change, negative = inhibition” value is reported as inactive: 21.5%. In the case of `Cn1c2c(c(O)c(-c3ccccc3)c1=O)C(=O)CC(C)(C)C2`, the Potency is reported as inconclusive: 11.2 µM [activator, partial curve]. For `O=C(O)C1CCC(N2C(=O)c3cccc([N+](=O)[O-])c3C2=O)CC1` (stereo not given), the Potency was inconclusive: 10 µM [inhibitor, single point]. For `CCCCCCCN1C2=NCCN2c2ccccc21`, the Potency was inconclusive: 3.16 µM [inhibitor, full curve]. With `COc1cccc(C(=O)NCC(=O)OCC(=O)Nc2cc(OC)c([N+](=O)[O-])cc2C)c1` the Potency was inconclusive: 35.5 µM [activator, single point]. For `CC(=O)NC(c1cccs1)c1cc([N+](=O)[O-])c2cccnc2c1O` (stereo not given), the Potency was active: 6.31 µM. With `O=C(Nc1ccc(S(=O)(=O)N2CCOCC2)cc1)c1ccc(CN2CCc3ccccc3C2)cc1` the Potency was active: 8.91 µM. With `Cc1ccc2nc(-c3ccc(NC(=O)CSCC(=O)O)cc3)sc2c1` the Potency was active: 11.2 µM. With `O=c1[nH]n(Cc2ccccc2)c(=O)c2ccccc12` the Potency was inconclusive: 11.2 µM [activator, partial curve]. With `C/C(=N\Nc1ccccn1)c1cccs1` the Potency was inconclusive: 35.5 µM [inhibitor, single point]. For `CCc1cccc(NC(=O)Cn2c3[n+](c4ccc(C(F)(F)F)cc42)CCCCC3)c1`, the “activity change, negative = inhibition” value was inactive: 1.94%. With `Cc1cccc2c1N1C(=O)c3c(C(=O)O)cccc3C1CC2C` (stereo not given) the Potency was inconclusive: 0.562 µM [inhibitor, single point]. `CSC(=S)N/N=C(\C)c1ccc(Br)cc1` was tested, and the “activity change, negative = inhibition” value was inactive: 0.904%. With `CCCn1c(CCC(=O)O)ccc1-c1cccs1` the Potency was inconclusive: 11.2 µM [inhibitor, partial curve, poor fit]. For `Cc1ccc(-n2c(=O)[nH]cc(C(=O)Nc3ccc4c(c3)OCO4)c2=O)cc1C`, the Potency was inconclusive: 0.112 µM [activator, full curve, poor fit]. `CC1CCCN(c2nc3c(c(=O)[nH]c(=O)n3C)n2CCCc2ccccc2)C1` (stereo not given) was tested, and the Potency was inconclusive: 14.1 µM [inhibitor, partial curve]. With `Cc1ccc(S(=O)(=O)Nc2ccc(Cl)cc2C(=O)c2ccccc2)cc1` the Potency was inconclusive: 15.8 µM [activator, single point]. `CCOC(=O)c1c(-c2ccc(C)o2)csc1NC(=S)NC(=O)N(C)C` was tested, and the Potency was active: 0.794 µM. For `CN(CC(=O)Nc1ccc(F)cc1)C(=O)c1cccc(S(=O)(=O)N2CCN(c3ccccc3)CC2)c1`, the Potency was inconclusive: 14.1 µM [activator, single point]. With `Cc1ccc(CN(C)C2CCN(C)CC2)cc1` the “activity change, negative = inhibition” value was inactive: 39%. With `COc1ccc2cc(CCNC(=O)c3ccc4c(c3)OCO4)c(=O)[nH]c2c1` the Potency was inconclusive: 17.8 µM [activator, single point]. For `Cc1cc(C)c(N=Cc2c(O)n(-c3nccs3)c(=O)c3ccccc23)c(C)c1`, the “activity change, negative = inhibition” value was inactive: -2.29%. In the case of `Cc1ccc(C23CC4CC(CC(CN)(C4)C2)C3)cc1`, the Potency is reported as inconclusive: 25.1 µM [inhibitor, single point]. For `O=C(c1cc(-c2ccc(Cl)cc2Cl)on1)N1CCCC1`, the Potency was active: 8.91 µM. In the case of `O=C(NC1CC1)c1ccc(CS(=O)c2ccc(Br)cc2)o1` (stereo not given), the Potency is reported as inconclusive: 35.5 µM [activator, single point]. For `N#Cc1ccc(C(=O)NC2CCCCCCC2)cc1`, the “activity change, negative = inhibition” value was inactive: -36.3%. For `O=C(Nc1cccc(F)c1)NC1CCCc2ccccc21` (stereo not given), the Potency was inconclusive: 35.5 µM [activator, single point]. With `O=C(/C=C/c1cccnc1)c1ccc(O)cc1` the Potency was active: 12.6 µM. With `N/C(=N\OC(=O)c1ccco1)c1ccccc1` the Potency was inconclusive: 14.1 µM [inhibitor, single point]. In the case of `CCCCOc1ccc(CSc2ncn[nH]2)cc1`, the Potency is reported as inconclusive: 8.91 µM [inhibitor, partial curve]. `Cc1ccc(NS(=O)(=O)c2ccc(NC(=O)CN(c3cc([N+](=O)[O-])ccc3C)S(C)(=O)=O)cc2)c(C)c1` was tested, and the Potency was inconclusive: 17.8 µM [activator, single point]. In the case of `Fc1ccccc1CN1CCCN(C(=S)Nc2cccc(Cl)c2)C1`, the Potency is reported as active: 7.08 µM. In the case of `CCOC(=O)CSc1nc2c(c(=O)[nH]c(=O)n2C)n1C/C=C(/C)Cl`, the “activity change, negative = inhibition” value is reported as inactive: -1.96%. `CSCCC(NC(=O)c1ccccc1)c1nc(-c2ccccc2)no1` (stereo not given) was tested, and the Potency was inconclusive: 5.62 µM [inhibitor, single point]. With `Cc1[nH][nH]c(=O)c1C(c1ccc(O)c([N+](=O)[O-])c1)c1c(C)[nH][nH]c1=O` the “activity change, negative = inhibition” value was inactive: -37.6%. `CCc1ccc(-c2cc(C(=O)N/N=C/c3c[nH]c4ccccc34)[nH]n2)cc1` was tested, and the Potency was active: 11.2 µM. In the case of `C=C(C)CNC(=S)N/N=C/c1ccc(N2CCOCC2)cc1`, the Potency is reported as active: 2 µM. With `O=C(Nc1ccccc1)c1ccc2c(c1)OCCCO2` the Potency was inconclusive: 35.5 µM [inhibitor, single point]. `O=C(CCCn1c(=S)[nH]c2ccsc2c1=O)Nc1ccc2c(c1)OCCO2` was tested, and the Potency was active: 11.2 µM. For `Cc1ccc(-c2cnc(-c3ccncc3)o2)cc1`, the “activity change, negative = inhibition” value was inactive: 38%. With `S=C(NCc1ccco1)NC1CCCc2ccccc21` (stereo not given) the Potency was active: 4.47 µM. In the case of `COCCn1c(=O)c(-c2cccs2)nc2cnc(OC)nc21`, the “activity change, negative = inhibition” value is reported as inactive: -10.2%. For `CC(C)Cn1c(N)c(C(=O)COC(=O)c2cccc(Cl)c2)c(=O)n(C)c1=O`, the “activity change, negative = inhibition” value was inactive: 20.9%. `Cc1ccc(-n2ncc3c(SCc4cccnc4)ncnc32)c(C)c1` was tested, and the Potency was inconclusive: 35.5 µM [inhibitor, single point]. With `CCNC(=S)NNC(=O)c1ccc2ncccc2c1` the Potency was inconclusive: 4.47 µM [inhibitor, full curve]. `O=C(N/N=C/c1c[nH]c2ccccc12)c1ccn(Cc2ccc(Cl)cc2)n1` was tested, and the “activity change, negative = inhibition” value was inactive: 6.13%. With `O=c1cc(N=Nc2ccc(Cl)cc2)[nH]c(=O)[nH]1` the Potency was active: 2.51 µM. `COc1ccc(C(=O)CSc2cc(C)nc(SCC(=O)c3ccc(C)cc3)n2)cc1` was tested, and the Potency was inconclusive: 5.62 µM [activator, single point]. With `O=C(Cc1ccc(Cl)cc1)Nc1ccc(SC(F)F)cc1` the Potency was inconclusive: 14.1 µM [activator, partial curve]. `O=C(/C=C/c1ccc(Cl)c(Cl)c1)N1CCOCC1` was tested, and the Potency was inconclusive: 35.5 µM [activator, single point]. In the case of `COc1cc(NC(=O)c2ccc(C)cc2C)ccc1NC(=O)c1cc2ccccc2o1`, the Potency is reported as active: 1.58 µM. `O=C(COc1c(Br)cc(Br)c2cccnc12)N1CCCCC1` was tested, and the Potency was active: 10 µM. In the case of `COc1cc(C(=O)N/N=C/c2sccc2C)cc(OC)c1OC`, the Potency is reported as active: 20 µM. With `COc1ccc(OC)c(NC(=O)c2ccc(CN(c3cc(Cl)ccc3C)S(=O)(=O)c3ccccc3)cc2)c1` the “activity change, negative = inhibition” value was inactive: 0.975%. With `CCC1CCc2c(sc(NC(=O)c3ccco3)c2C(N)=O)C1` (stereo not given) the Potency was inconclusive: 3.98 µM [activator, single point]. In the case of `COc1ccc(NC(=O)C(C)N(C)Cc2ccc3ccccc3c2)cc1` (stereo not given), the Potency is reported as inconclusive: 35.5 µM [activator, single point]. `Cc1nc2cc(C(=O)OCC(=O)Nc3cccc(Cl)c3)ccc2n1-c1ccccc1` was tested, and the Potency was inconclusive: 25.1 µM [activator, single point]. In the case of `CN(C)CCCN(C(=O)c1ccc2c(c1)CCCC2)c1nc2ccc(Cl)cc2s1`, the Potency is reported as inconclusive: 35.5 µM [inhibitor, single point]. For `FC(F)(F)c1ccc(Cl)c(N/N=C/c2ccc(N3CCOCC3)s2)c1`, the “activity change, negative = inhibition” value was inactive: -1.96%. In the case of `CCOC(=O)Cn1nc(-c2ccccc2)c2cnc3ccc(C)cc3c21`, the Potency is reported as inconclusive: 22.4 µM [inhibitor, single point]. For `CCOC(=O)c1c(CC(C)C)csc1NC(=O)CCl`, the “activity change, negative = inhibition” value was inactive: -86.5%. For `Cn1c(-c2cnn(-c3ccccc3)c2-n2cccc2)n[nH]c1=S`, the Potency was inconclusive: 17.8 µM [inhibitor, partial curve, poor fit]. In the case of `Cc1nn(CCc2nn[nH]n2)c2nc(-c3ccccc3)cc(C(F)(F)F)c12`, the Potency is reported as inconclusive: 35.5 µM [inhibitor, single point].
Further: nearly all actives have a fitted effect of over 60% in size.
On the % scale 0 is the no-effect control and ±100 the full control effect; potency means the concentration at half of the fitted maximal effect.
